Assay results taken from doi:10.1101/2025.07.02.662750.
These are yes or no findings as the source states them, for the method shown. In cells and extracts the contact can be indirect. Some entries that bind do so weakly or less than the wild type. For some assays here: Tags and fused reporters may be left off the sequences shown.

The chains behind the UniProt entries cited, without tags or fusion partners. Residues count along the entry.
UniProt P56703, residues 22-355: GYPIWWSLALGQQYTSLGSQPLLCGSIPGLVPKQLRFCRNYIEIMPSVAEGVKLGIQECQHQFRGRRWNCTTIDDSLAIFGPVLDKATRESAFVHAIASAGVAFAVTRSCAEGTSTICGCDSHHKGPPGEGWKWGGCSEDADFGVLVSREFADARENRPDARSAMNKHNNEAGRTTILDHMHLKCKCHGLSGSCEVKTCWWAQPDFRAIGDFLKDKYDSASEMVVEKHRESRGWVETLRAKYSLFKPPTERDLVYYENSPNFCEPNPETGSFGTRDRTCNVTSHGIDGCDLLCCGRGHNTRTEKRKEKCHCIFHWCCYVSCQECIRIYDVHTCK

T1: Wnt11 (UniProt O96014)
T1 sequence: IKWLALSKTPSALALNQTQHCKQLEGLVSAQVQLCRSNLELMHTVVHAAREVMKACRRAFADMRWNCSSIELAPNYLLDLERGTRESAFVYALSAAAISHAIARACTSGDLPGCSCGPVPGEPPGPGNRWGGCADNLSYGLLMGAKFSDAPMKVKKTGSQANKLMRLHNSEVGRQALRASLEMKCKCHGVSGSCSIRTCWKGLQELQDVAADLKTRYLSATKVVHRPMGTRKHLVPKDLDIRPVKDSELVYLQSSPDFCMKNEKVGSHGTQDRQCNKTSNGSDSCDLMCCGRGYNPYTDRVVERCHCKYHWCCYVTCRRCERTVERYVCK

T2: Wnt11^N40Q (UniProt O96014)
T2 sequence: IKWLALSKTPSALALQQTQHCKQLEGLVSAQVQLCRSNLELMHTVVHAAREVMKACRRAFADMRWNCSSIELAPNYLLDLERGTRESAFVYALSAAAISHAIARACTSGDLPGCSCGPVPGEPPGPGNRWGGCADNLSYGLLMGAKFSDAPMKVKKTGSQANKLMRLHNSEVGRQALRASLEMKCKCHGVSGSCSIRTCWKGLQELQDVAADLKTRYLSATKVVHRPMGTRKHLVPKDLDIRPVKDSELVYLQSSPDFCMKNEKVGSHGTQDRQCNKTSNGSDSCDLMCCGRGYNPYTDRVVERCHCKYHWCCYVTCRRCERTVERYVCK

T3: Wnt11-V5 (UniProt O96014)
T3 sequence: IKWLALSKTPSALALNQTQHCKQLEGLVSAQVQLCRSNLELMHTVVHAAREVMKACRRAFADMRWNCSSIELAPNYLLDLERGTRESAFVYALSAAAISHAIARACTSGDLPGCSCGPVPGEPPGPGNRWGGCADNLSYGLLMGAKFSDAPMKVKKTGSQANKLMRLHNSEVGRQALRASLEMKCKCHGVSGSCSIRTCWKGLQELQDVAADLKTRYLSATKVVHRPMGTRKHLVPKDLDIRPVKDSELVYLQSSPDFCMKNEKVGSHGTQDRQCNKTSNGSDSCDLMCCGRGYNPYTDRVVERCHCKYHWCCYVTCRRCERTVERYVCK


Experiments:
Assay in all cases: co-IP
Wnt11 = target: T1, Wnt11
Wnt11^N40Q = target: T2, Wnt11^N40Q
Wnt3 = Wnt3 (UniProt P56703)
Wnt11-V5 = target: T3, Wnt11-V5

Row | binding (Wnt11) | binding (Wnt11^N40Q) | binding (Wnt3) | binding (Wnt11-V5) | Binder
1 | binds |  |  |  | FZD6 (receptor, UniProt O60353 19-706) HSLFTCEPITVPRCMKMAYNMTFFPNLMGHYDQSIAAVEMEHFLPLANLECSPNIETFLCKAFVPTCIEQIHVVPPCRKLCEKVYSDCKKLIDTFGIRWPEELECDRLQYCDETVPVTFDPHTEFLGPQKKTEQVQRDIGFWCPRHLKTSGGQGYKFLGIDQCAPPCPNMYFKSDELEFAKSFIGTVSIFCLCATLFTFLTFLIDVRRFRYPERPIIYYSVCYSIVSLMYFIGFLLGDSTACNKADEKLELGDTVVLGSQNKACTVLFMLLYFFTMAGTVWWVILTITWFLAAGRKWSCEAIEQKAVWFHAVAWGTPGFLTVMLLAMNKVEGDNISGVCFVGLYDLDASRYFVLLPLCLCVFVGLSLLLAGIISLNHVRQVIQHDGRNQEKLKKFMIRIGVFSGLYLVPLVTLLGCYVYEQVNRITWEITWVSDHCRQYHIPCPYQAKAKARPELALFMIKYLMTLIVGISAVFWVGSKKTCTEWAGFFKRNRKRDPISESRRVLQESCEFFLKHNSKVKHKKKHYKPSSHKLKVISKSMGTSTGATANHGTSAVAITSHDYLGQETLTEIQTSPETSMREVKADGASTPRLREQDCGEPASPAASISRLSGEQVDGKGQAGSVSESARSEGRISPKSDITDTGLAQSNNLQVPSSSEPSSLKGSTSLLVHPVSGVRKEQGGGCHSDT
2 | binds | binds | binds | binds | Evi/Wls (receptor, UniProt Q5T9L3 1-541) MAGAIIENMSTKKLCIVGGILLVFQIIAFLVGGLIAPGPTTAVSYMSVKCVDARKNHHKTKWFVPWGPNHCDKIRDIEEAIPREIEANDIVFSVHIPLPHMEMSPWFQFMLFILQLDIAFKLNNQIRENAEVSMDVSLAYRDDAFAEWTEMAHERVPRKLKCTFTSPKTPEHEGRYYECDVLPFMEIGSVAHKFYLLNIRLPVNEKKKINVGIGEIKDIRLVGIHQNGGFTKVWFAMKTFLTPSIFIIMVWYWRRITMMSRPPVLLEKVIFALGISMTFINIPVEWFSIGFDWTWMLLFGDIRQGIFYAMLLSFWIIFCGEHMMDQHERNHIAGYWKQVGPIAVGSFCLFIFDMCERGVQLTNPFYSIWTTDIGTELAMAFIIVAGICLCLYFLFLCFMVFQVFRNISGKQSSLPAMSKVRRLHYEGLIFRFKFLMLITLACAAMTVIFFIVSQVTEGHWKWGGVTVQVNSAFFTGIYGMWNLYVFALMFLYAPSHKNYGEDQSNGDLGVHSGEELQLTTTITHVDGPTEIYKLTRKEAQE
